Some of the results follow. Most entries show no effect beyond the scatter of the controls.
Each target was assayed with CN[C@@H]1C[C@H]2O[C@@](C)([C@@H]1OC)n1c3ccccc3c3c4c(c5c6ccccc6n2c5c31)C(=O)NC4 [staurosporine] (assay: log2 fold change of tryptic peptide abundance, ligand vs vehicle (limited proteolysis) (log2 ratio); higher = more trypsin-susceptible (destabilized)). Details: ligand concentration: 20 uM; sample: K562 cleared lysate; digestion: 4 min, 22 C (HT-PELSA RT4min, Orbitrap Astral).

Protein sequences, listed by entry. Tags and fused reporters are not part of them. Lines headed by an entry give the natural chain unless they say otherwise; changes in a name come on top.
UniProt Q8IXR5: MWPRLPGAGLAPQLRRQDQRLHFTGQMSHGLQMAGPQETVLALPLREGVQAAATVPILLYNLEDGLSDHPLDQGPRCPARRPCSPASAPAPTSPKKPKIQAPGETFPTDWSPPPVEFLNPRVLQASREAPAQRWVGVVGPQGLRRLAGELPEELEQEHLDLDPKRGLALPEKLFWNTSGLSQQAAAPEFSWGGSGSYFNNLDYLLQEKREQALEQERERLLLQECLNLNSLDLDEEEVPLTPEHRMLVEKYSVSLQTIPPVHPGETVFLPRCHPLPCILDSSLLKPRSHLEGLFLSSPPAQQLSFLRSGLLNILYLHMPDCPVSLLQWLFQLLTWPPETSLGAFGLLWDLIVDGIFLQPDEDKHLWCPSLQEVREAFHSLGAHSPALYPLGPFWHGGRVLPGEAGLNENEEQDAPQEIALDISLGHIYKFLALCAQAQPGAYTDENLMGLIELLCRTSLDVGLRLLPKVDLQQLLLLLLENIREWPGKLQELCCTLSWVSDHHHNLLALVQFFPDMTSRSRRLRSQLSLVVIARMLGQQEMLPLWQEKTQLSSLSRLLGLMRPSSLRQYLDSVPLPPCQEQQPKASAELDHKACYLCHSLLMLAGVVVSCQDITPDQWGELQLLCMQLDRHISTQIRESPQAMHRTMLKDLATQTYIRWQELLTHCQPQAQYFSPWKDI
UniProt Q8IXQ3: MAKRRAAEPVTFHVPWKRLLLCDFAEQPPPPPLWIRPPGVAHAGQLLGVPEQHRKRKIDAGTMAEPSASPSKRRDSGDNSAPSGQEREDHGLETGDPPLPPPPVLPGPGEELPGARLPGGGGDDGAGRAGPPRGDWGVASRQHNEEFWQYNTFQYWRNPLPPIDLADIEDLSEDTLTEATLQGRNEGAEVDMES
UniProt Q8N0W3: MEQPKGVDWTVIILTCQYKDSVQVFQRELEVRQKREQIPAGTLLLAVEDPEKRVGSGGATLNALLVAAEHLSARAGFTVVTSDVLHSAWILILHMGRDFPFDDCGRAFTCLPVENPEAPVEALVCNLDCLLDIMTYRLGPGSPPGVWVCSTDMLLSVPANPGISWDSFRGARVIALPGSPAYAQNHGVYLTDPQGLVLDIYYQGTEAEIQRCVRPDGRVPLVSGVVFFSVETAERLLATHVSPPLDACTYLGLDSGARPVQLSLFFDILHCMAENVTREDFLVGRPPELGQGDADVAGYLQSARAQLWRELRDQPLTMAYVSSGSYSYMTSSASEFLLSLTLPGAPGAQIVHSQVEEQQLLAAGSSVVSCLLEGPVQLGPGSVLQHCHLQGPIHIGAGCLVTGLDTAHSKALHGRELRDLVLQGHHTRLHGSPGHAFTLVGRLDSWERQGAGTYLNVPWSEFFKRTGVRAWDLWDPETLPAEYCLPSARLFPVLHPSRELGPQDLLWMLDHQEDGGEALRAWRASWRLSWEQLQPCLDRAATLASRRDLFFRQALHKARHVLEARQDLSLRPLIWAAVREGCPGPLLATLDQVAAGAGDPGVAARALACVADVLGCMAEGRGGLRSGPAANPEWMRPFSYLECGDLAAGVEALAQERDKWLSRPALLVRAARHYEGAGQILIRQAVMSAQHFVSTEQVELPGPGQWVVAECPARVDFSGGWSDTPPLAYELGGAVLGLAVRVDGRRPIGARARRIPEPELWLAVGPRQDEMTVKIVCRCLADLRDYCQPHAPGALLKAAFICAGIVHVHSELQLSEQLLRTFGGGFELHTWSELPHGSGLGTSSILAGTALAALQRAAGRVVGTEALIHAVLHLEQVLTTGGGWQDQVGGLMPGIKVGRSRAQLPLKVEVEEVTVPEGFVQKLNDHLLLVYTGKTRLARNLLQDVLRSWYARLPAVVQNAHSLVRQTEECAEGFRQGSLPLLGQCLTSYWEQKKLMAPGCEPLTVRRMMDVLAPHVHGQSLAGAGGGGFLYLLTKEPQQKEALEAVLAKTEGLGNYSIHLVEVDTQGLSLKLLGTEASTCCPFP
UniProt Q86WZ6: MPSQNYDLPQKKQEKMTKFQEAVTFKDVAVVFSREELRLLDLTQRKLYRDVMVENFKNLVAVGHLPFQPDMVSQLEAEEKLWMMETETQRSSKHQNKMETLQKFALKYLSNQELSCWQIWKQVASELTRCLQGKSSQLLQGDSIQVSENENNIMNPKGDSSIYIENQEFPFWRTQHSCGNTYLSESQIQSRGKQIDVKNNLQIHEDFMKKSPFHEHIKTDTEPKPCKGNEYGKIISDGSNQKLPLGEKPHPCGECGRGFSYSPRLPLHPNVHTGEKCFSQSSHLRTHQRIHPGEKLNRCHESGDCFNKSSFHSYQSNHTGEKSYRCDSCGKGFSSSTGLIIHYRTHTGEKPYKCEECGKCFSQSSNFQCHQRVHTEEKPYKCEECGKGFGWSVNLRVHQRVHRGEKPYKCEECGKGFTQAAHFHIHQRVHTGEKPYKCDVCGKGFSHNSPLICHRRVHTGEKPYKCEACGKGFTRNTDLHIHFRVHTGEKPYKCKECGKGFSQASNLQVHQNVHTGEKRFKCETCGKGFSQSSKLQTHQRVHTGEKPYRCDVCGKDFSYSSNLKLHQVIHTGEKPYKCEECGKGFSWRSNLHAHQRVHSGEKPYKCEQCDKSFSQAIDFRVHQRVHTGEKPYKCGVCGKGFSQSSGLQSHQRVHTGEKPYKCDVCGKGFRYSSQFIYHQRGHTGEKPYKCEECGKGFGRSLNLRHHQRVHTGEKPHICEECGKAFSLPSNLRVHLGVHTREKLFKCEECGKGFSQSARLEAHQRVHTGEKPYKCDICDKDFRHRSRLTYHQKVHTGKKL
UniProt Q8N357: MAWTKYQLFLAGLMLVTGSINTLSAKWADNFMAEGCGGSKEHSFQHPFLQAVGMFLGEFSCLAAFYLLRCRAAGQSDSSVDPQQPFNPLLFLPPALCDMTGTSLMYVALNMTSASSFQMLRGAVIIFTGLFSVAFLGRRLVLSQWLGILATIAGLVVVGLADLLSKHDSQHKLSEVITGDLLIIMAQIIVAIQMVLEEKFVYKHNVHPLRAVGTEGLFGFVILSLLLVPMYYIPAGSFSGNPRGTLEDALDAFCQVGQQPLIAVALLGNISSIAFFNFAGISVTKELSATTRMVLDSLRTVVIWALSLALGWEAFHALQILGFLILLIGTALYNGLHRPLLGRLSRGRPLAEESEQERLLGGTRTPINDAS
UniProt Q86XP1: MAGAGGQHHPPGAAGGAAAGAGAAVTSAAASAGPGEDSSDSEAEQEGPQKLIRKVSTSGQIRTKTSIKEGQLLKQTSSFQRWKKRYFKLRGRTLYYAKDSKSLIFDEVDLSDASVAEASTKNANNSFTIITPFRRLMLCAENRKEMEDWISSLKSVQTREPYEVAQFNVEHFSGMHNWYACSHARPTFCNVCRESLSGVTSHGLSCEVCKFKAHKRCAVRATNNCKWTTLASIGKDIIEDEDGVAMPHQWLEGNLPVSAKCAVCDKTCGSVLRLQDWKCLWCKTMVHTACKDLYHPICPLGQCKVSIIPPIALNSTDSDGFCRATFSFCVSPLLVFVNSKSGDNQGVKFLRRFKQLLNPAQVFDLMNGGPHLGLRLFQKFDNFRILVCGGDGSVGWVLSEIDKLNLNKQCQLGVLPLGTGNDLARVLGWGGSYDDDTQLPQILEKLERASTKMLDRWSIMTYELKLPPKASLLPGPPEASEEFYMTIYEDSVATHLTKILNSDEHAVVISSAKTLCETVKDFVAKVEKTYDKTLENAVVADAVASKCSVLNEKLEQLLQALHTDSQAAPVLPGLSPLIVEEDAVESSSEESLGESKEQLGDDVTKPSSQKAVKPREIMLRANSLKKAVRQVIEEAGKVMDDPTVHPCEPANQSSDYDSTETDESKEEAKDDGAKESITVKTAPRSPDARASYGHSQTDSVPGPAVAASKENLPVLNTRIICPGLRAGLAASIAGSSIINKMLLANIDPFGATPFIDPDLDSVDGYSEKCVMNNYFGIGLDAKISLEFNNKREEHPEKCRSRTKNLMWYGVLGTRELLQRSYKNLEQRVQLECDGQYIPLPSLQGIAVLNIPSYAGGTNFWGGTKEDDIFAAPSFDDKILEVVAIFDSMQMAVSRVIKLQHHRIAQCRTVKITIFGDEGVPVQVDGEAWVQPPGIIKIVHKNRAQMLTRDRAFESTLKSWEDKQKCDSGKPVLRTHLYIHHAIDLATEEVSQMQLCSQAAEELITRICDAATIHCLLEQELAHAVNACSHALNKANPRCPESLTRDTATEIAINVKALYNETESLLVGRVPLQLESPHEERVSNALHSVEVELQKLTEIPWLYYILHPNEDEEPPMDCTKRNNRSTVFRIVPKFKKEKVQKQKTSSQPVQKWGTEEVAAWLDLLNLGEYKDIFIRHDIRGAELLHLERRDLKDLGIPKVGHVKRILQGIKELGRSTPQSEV
UniProt Q8IZP0: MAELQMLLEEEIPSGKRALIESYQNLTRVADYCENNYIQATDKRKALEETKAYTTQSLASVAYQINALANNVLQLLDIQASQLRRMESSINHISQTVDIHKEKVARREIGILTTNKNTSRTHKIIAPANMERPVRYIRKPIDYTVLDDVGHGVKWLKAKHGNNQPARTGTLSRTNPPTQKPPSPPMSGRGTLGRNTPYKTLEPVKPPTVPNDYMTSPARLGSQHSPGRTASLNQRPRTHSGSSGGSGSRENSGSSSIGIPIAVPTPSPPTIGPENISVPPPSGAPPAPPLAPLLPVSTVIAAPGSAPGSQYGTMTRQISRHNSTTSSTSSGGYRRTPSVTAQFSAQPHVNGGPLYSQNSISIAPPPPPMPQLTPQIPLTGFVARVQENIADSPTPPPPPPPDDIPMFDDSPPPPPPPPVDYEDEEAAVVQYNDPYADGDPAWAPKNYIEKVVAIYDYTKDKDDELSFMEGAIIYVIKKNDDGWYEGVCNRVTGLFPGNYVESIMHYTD
UniProt Q8IZ73: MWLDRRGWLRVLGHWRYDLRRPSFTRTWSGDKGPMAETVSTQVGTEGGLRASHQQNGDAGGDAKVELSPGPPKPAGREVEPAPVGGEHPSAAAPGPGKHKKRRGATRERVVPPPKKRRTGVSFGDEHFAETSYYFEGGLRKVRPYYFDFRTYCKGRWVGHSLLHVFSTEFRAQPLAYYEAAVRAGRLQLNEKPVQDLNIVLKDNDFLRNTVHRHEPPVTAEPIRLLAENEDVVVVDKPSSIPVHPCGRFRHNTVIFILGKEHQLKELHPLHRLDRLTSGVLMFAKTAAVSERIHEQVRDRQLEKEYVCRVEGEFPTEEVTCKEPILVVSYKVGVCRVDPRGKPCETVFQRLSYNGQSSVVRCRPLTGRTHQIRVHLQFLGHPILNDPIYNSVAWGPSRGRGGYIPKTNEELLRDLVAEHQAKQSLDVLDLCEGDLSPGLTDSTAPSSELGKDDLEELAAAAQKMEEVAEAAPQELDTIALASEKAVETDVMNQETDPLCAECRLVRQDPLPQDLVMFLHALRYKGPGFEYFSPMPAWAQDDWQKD
UniProt Q8IZP2: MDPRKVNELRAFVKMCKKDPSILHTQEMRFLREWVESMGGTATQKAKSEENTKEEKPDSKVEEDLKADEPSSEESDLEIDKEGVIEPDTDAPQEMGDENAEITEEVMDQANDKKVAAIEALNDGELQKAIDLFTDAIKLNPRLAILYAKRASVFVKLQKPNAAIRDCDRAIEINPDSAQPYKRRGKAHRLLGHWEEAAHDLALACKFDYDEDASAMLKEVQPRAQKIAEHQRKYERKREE

Target	log2 fold change
FAM178B (peptide sequence: ESPQAMHR, peptide start residue: 638) (UniProt Q8IXR5)	0.137
C9orf40 (peptide sequence: DSGDNSAPSGQER, peptide start residue: 75) (UniProt Q8IXQ3)	-0.146
UniProt Q8N0W3 (peptide sequence: EQIPAGTLLLAVEDPEKR, peptide start residue: 36)	-0.402
UniProt Q86WZ6 (peptide sequence: GFGWSVNLR, peptide start residue: 388)	0.648
UniProt Q8N357 (peptide sequence: GRPLAEESEQER, peptide start residue: 347)	-0.187
DGKH (peptide sequence: ASYGHSQTDSVPGPAVAASK, peptide start residue: 690) (UniProt Q86XP1)	-0.408
ABI1 (peptide sequence: VADYCENNYIQATDKR, peptide start residue: 29) (UniProt Q8IZP0)	-0.216
RPUSD2 (peptide sequence: VELSPGPPKPAGR, peptide start residue: 65) (UniProt Q8IZ73)	-0.0892
ST13P4 (peptide sequence: LQKPNAAIR, peptide start residue: 161) (UniProt Q8IZP2)	0.252

Reference: the supplement of paper PMC12819154, “High-throughput peptide-centric local stability assay extends protein–ligand identification to membrane proteins, tissues and bacteria” (Nature Structural & Molecular Biology, 2025)
